From PMC1764028
No constants are given. Whether binding was seen depends on the method and setting. In cells and extracts the contact can be indirect. Some entries that bind do so weakly or less than the wild type.

By UniProt entry, the sequences of proteins in these tests, tags left out. Residues count along the entry.
UniProt Q9UPY3: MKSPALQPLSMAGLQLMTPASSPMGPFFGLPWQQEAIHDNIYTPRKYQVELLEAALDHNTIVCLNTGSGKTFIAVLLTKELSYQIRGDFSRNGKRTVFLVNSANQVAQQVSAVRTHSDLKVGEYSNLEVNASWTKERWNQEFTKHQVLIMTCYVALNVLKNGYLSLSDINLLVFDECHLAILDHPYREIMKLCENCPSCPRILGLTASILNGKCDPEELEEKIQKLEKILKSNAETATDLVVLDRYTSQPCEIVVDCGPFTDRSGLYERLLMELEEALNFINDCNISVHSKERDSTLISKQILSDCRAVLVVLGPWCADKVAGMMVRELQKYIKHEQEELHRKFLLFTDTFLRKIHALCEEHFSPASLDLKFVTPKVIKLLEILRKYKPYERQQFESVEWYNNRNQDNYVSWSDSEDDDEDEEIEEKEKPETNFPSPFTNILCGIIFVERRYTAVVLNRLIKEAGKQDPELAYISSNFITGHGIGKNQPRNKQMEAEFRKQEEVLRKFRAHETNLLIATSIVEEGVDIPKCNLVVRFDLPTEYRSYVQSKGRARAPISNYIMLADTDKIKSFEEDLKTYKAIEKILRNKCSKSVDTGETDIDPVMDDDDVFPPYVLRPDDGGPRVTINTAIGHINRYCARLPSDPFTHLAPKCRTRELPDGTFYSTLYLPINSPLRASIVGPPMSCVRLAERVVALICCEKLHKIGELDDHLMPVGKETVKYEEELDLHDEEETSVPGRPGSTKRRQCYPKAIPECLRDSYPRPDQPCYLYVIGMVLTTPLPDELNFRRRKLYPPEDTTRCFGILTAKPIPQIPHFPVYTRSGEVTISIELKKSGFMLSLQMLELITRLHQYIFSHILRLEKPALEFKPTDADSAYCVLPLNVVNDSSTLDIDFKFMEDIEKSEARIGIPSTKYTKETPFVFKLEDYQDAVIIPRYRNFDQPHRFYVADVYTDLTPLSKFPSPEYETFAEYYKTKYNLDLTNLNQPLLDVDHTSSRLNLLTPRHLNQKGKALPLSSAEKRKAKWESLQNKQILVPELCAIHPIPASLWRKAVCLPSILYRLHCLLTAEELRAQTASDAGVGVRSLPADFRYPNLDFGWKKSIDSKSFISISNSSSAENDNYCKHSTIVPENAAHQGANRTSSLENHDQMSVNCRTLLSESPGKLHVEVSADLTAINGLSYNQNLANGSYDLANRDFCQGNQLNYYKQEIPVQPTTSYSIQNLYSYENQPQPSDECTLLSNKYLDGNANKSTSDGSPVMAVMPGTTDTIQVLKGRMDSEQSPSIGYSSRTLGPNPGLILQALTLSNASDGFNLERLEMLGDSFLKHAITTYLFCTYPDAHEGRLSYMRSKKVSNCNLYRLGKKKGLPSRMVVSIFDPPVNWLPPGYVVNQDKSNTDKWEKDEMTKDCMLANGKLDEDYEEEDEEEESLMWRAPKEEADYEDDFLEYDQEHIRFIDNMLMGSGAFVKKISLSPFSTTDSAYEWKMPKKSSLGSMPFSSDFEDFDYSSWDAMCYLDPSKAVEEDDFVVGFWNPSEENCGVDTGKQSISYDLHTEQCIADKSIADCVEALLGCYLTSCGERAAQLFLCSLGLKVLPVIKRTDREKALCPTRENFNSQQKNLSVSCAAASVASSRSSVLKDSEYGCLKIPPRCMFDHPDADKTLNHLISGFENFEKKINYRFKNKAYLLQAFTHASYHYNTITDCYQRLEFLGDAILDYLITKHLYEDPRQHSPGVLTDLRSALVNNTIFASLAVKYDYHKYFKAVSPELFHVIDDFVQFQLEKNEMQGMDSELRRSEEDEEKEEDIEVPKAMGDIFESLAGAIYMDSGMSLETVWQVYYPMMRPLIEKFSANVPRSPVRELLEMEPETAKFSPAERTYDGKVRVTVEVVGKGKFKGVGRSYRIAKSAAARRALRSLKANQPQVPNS
UniProt P04608, residues 1-45: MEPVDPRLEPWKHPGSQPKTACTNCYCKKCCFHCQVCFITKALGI
UniProt Q9UKV8: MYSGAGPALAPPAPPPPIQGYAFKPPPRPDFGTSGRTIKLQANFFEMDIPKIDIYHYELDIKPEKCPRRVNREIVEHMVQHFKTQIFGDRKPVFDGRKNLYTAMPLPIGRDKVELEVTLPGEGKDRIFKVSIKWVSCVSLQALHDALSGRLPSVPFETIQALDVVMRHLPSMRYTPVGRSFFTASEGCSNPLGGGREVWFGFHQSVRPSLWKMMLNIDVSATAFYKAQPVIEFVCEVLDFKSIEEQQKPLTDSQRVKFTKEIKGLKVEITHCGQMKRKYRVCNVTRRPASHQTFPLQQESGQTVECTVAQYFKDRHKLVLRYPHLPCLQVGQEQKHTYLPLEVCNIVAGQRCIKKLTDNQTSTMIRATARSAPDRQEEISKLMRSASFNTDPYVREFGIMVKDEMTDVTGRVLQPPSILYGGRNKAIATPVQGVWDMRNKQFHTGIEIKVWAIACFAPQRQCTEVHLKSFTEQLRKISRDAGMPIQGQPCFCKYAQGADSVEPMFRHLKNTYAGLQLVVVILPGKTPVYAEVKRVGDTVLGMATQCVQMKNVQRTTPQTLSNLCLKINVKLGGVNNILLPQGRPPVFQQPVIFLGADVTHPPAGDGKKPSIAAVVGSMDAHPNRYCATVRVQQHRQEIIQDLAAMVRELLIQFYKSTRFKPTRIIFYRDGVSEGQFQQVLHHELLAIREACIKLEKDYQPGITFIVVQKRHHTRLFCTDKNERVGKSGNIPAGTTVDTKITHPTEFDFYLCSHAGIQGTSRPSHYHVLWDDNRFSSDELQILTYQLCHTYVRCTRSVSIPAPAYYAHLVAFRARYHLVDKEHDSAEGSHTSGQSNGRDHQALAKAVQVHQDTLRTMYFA

Columns and labels:
[1] = biological target: flag-tagged wild-type Dicer (UniProt Q9UPY3); test: co-IP; 293T cells co-transfected with flag-tagged Dicer (wt or N-terminal deletion mutants) and Tat; immunoprecipitation with anti-flag beads; blots with anti-flag, anti-Tat, anti-Ago2
GST-Tat 1–45 (HIV-1) = GST-Tat 1–45 (HIV-1) (UniProt P04608); test: pull-down; purified GST, GST-Tat or GST-Tat deletion mutants used to pull down from lysates of myc-Dicer transfected 293T cells; Dicer detected with anti-myc; only the target purified

Substance	binding [1]	binding (GST-Tat 1–45 (HIV-1))
argonaute 2 (Ago-2) (from UniProt Q9UKV8 1-859)	binds	–
myc-tagged Dicer (from UniProt Q9UPY3 1-1922) (enzyme)	–	no binding
